# The list shows a part of the results.
# B1: Endo180d1-D4 (Homo sapiens), Q9UBG0 (protein)
# chain: MGPGRPAPAPWPRHLLRCVLLLGCLHLGRPGAPGDAALPEPNVFLIFSHGLQGCLEAQGGQVRVTPACNTSLPAQRWKWVSRNRLFNLGTMQCLGTGWPGTNTTASLGMYECDREALNLRWHCRTLGDQLSLLLGARTSNISKPGTLERGDQTRSGQWRIYGSEEDLCALPYHEVYTIQGNSHGKPCTIPFKYDNQWFHGCTSTGREDGHLWCATTQDYGKDERWGFCPIKSNDCETFWDKDQLTDSCYQFNFQSTLSWREAWASCEQQGADLLSITEIHEQTYINGLLTGYSSTLWIGLNDLDTSGGWQWSDNSPLKYLNWESDQPDNPSEENCGVIRTESSGGWQNRDCSIALPYVCKKKPNATAEPTPPDRWANVKVECEPSWQPFQGHCYRLQAEKRSWQESKKACLRGGGDLVSIHSMAELEFITKQIKQEVEELWIGLNDLKLQMNFEWSDGSLVSFTHWHPFEPNNFRDSLEDCVTIWGPEGRWNDSPCNQSLPSICKKAGQLSQGAAEEDHGCRKGWTWHSPSCYWLGEDQVTYSEARRLCTDHGSQLVTITNRFEQAFVSSLIYNWEGEYFWTALQDLNSTGSFFWLSGDEVMYTHWNRDQPGYSRGGCVALATGSAMGLWEVKNCTSFRARYICRQSLGTPVTPELPGPDPTPSLTGSCPQGWASDTKLRYCYKVFSSERLQDKKSWVQAQGACQELGAQLLSLASYEEEHFVANMLNKIFGESEPEIHEQHWFWIGLNRRDPRGGQSWRWSDGVGFSYHNFDRSRHDDDDIRGCAVLDLASLQWVAMQCDTQLDWICKIPRGTDVREPDDSPQGRREWLRFQEAEYKFFEHHSTWAQAQRICTWFQAELTSVHSQAELDFLSHNLQKFSRAQEQHWWIGLHTSESDGRFRWTDGSIINFISWAPGKPRPVGKDKKCVYMTASREDWGDQRCLTALPYICKRSNVTKETQPPDLPTTALGGCPSDWIQFLNKCFQVQGQEPQSRVKWSEAQFSCEQQEAQLVTITNPLEQAFITASLPNVTFDLWIGLHASQRDFQWVEQEPLMYANWAPGEPSGPSPAPSGNKPTSCAVVLHSPSAHFTGRWDDRSCTEETHGFICQKGTDPSLSPSPAALPPAPGTELSYLNGTFRLLQKPLRWHDALLLCESHNASLAYVPDPYTQAFLTQAARGLRTPLWIGLAGEEGSRRYSWVSEEPLNYVGWQDGEPQQPGGCTYVDVDGAWRTTSCDTKLQGAVCGVSSGPPPPRRISYHGSCPQGLADSAWIPFREHCYSFHMELLLGHKEARQRCQRAGGAVLSILDEMENVFVWEHLQSYEGQSRGAWLGMNFNPKGGTLVWQDNTAVNYSNWGPPGLGPSMLSHNSCYWIQSNSGLWRPGACTNITMGVVCKLPRAEQSSFSPSALPENPAALVVVLMAVLLLLALLTAALILYRRRQSIERGAFEGARYSRSSSSPTEATEKNILVSDMEMNEQQE
# Experiments:
# Assay in all cases: glycan array binding signal (z-score within array); higher = stronger binding
# Details in all cases: glycan notation: IUPAC condensed, linker removed
# [1] = biological target: Neu5Ac(a2-3)Gal(b1-4)GlcNAc(b1-2)Man
# In short: (§1)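 Negative Z-scores can be read as non-binding. The Z-score is calculated within each array and then averaged across arrays of one protein sequence at different concentrations or buffers and across linkers. Arrays, 3228 in all, were curated from the Consortium for Functional Glycomics database and kept only where the protein sequence was available.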
# [2] = biological target: Neu5Ac(a2-3)Gal(b1-4)GlcNAc(b1-2)Man(a1-3)[GlcNAc(b1-4)][Neu5Ac(a2-3)Gal(b1-4)GlcNAc(b1-2)Man(a1-6)]Man(b1-4)GlcNAc(b1-4)GlcNAc
# In short: as §1
# [3] = biological target: Neu5Ac(a2-3)Gal(b1-4)GlcNAc(b1-2)Man(a1-3)[Neu5Ac(a2-3)Gal(b1-4)GlcNAc(b1-2)Man(a1-6)]Man(b1-4)GlcNAc(b1-4)GlcNAc
# In short: as §1
# [4] = biological target: Neu5Ac(a2-3)Gal(b1-4)GlcNAc(b1-2)Man(a1-3)[Neu5Ac(a2-3)Gal(b1-4)GlcNAc(b1-2)Man(a1-6)]Man(b1-4)GlcNAc(b1-4)[Fuc(a1-6)]GlcNAc
# In short: as §1
# [5] = biological target: Neu5Ac(a2-3)Gal(b1-4)GlcNAc(b1-2)Man(a1-3)[Neu5Ac(a2-6)Gal(b1-4)GlcNAc(b1-2)Man(a1-6)]Man(b1-4)GlcNAc(b1-4)GlcNAc
# In short: as §1
# [6] = biological target: Neu5Ac(a2-3)Gal(b1-4)GlcNAc(b1-2)[Neu5Ac(a2-3)Gal(b1-4)GlcNAc(b1-4)]Man(a1-3)[GlcNAc(b1-4)][Neu5Ac(a2-3)Gal(b1-4)GlcNAc(b1-2)[Neu5Ac(a2-3)Gal(b1-4)GlcNAc(b1-6)]Man(a1-6)]Man(b1-4)GlcNAc(b1-4)GlcNAc
# In short: as §1
# [7] = biological target: Neu5Ac(a2-3)Gal(b1-4)GlcNAc(b1-2)[Neu5Ac(a2-3)Gal(b1-4)GlcNAc(b1-4)]Man(a1-3)[GlcNAc(b1-4)][Neu5Ac(a2-3)Gal(b1-4)GlcNAc(b1-4)Man(a1-6)]Man(b1-4)GlcNAc(b1-4)GlcNAc
# In short: as §1
# [8] = biological target: Neu5Ac(a2-3)Gal(b1-4)GlcNAc(b1-2)[Neu5Ac(a2-3)Gal(b1-4)GlcNAc(b1-6)]Man(a1-6)[Neu5Ac(a2-3)Gal(b1-4)GlcNAc(b1-2)Man(a1-3)][GlcNAc(b1-4)]Man(b1-4)GlcNAc(b1-4)GlcNAc
# In short: as §1
# [9] = biological target: Neu5Ac(a2-3)Gal(b1-4)GlcNAc(b1-3)Gal
# In short: as §1
# [10] = biological target: Neu5Ac(a2-3)Gal(b1-4)GlcNAc(b1-3)Gal(b1-3)GlcNAc
# In short: as §1
# [11] = biological target: Neu5Ac(a2-3)Gal(b1-4)GlcNAc(b1-3)Gal(b1-4)GlcNAc
# In short: as §1
# [12] = biological target: Neu5Ac(a2-3)Gal(b1-4)GlcNAc(b1-3)Gal(b1-4)GlcNAc(b1-2)Man(a1-3)[Neu5Ac(a2-3)Gal(b1-4)GlcNAc(b1-3)Gal(b1-4)GlcNAc(b1-2)Man(a1-6)]Man(b1-4)GlcNAc(b1-4)GlcNAc
# In short: as §1
# [13] = biological target: Neu5Ac(a2-3)Gal(b1-4)GlcNAc(b1-3)Gal(b1-4)GlcNAc(b1-3)Gal(b1-4)GlcNAc
# In short: as §1
# [14] = biological target: Neu5Ac(a2-3)Gal(b1-4)GlcNAc(b1-3)Gal(b1-4)GlcNAc(b1-3)Gal(b1-4)GlcNAc(b1-2)Man(a1-3)[Neu5Ac(a2-3)Gal(b1-4)GlcNAc(b1-3)Gal(b1-4)GlcNAc(b1-3)Gal(b1-4)GlcNAc(b1-2)Man(a1-6)]GalNAc
# In short: as §1
# [15] = biological target: Neu5Ac(a2-3)Gal(b1-4)GlcNAc(b1-3)Gal(b1-4)GlcNAc(b1-3)GalNAc
# In short: as §1
# [16] = biological target: Neu5Ac(a2-3)Gal(b1-4)GlcNAc(b1-3)Gal(b1-4)GlcNAc(b1-3)[Neu5Ac(a2-3)Gal(b1-4)GlcNAc(b1-3)Gal(b1-4)GlcNAc(b1-6)]GalNAc
# In short: as §1
# [17] = biological target: Neu5Ac(a2-3)Gal(b1-4)GlcNAc(b1-3)Gal(b1-4)GlcNAc(b1-6)[Gal(b1-3)]GalNAc
# In short: as §1
# [18] = biological target: Neu5Ac(a2-3)Gal(b1-4)GlcNAc(b1-3)Gal(b1-4)[Fuc(a1-3)]GlcNAc
# In short: as §1
# [19] = biological target: Neu5Ac(a2-3)Gal(b1-4)GlcNAc(b1-3)GalNAc
# In short: as §1
# [20] = biological target: Neu5Ac(a2-3)Gal(b1-4)GlcNAc(b1-3)[Neu5Ac(a2-3)Gal(b1-4)GlcNAc(b1-6)]GalNAc
# In short: as §1
# [21] = biological target: Neu5Ac(a2-3)Gal(b1-4)GlcNAc(b1-6)GalNAc
# In short: as §1
# [22] = biological target: Neu5Ac(a2-3)Gal(b1-4)GlcNAc(b1-6)[Gal(b1-3)]GalNAc
# In short: as §1
# [23] = biological target: Neu5Ac(a2-3)Gal(b1-4)GlcNAc(b1-6)[Neu5Ac(a2-3)Gal(b1-3)]GalNAc
# In short: as §1
binder,measurement,setting,value
B1,glycan array binding signal (z-score),[1],-0.693
same,glycan array binding signal (z-score),[2],0.657
same,glycan array binding signal (z-score),[3],-0.688
same,glycan array binding signal (z-score),[4],1.03
same,glycan array binding signal (z-score),[5],1.42
same,glycan array binding signal (z-score),[6],-0.801
same,glycan array binding signal (z-score),[7],0.456
same,glycan array binding signal (z-score),[8],-0.584
same,glycan array binding signal (z-score),[9],0.249
same,glycan array binding signal (z-score),[10],1.62
same,glycan array binding signal (z-score),[11],-0.324
same,glycan array binding signal (z-score),[12],0.637
same,glycan array binding signal (z-score),[13],-0.346
same,glycan array binding signal (z-score),[14],0.871
same,glycan array binding signal (z-score),[15],-0.597
same,glycan array binding signal (z-score),[16],0.933
same,glycan array binding signal (z-score),[17],-1.2
same,glycan array binding signal (z-score),[18],-0.946
same,glycan array binding signal (z-score),[19],-0.221
same,glycan array binding signal (z-score),[20],0.176
same,glycan array binding signal (z-score),[21],-0.813
same,glycan array binding signal (z-score),[22],0.731
same,glycan array binding signal (z-score),[23],0.222

# Exported with tabs: part of the list above
binder	measurement	setting	value
B1	glycan array binding signal (z-score)	[2]	0.657
same	glycan array binding signal (z-score)	[3]	-0.688
same	glycan array binding signal (z-score)	[4]	1.03
same	glycan array binding signal (z-score)	[5]	1.42

# Reference: the supplement of paper PMC8728848
